Results taken from the supplement of paper PMC7661543.
± gives the standard deviation of the averaged measurements. Differences between knockout arms are mostly noise.

Tested on: SKBR3
Test: relative cell number vs DMSO control (72 h) (% of DMSO); higher = less growth inhibition (more cells)
Method: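 QMAP-Seq: a pool of 5 breast cancer cell lines (ZR-75-1, SKBR3, HCC-38, MDA-MB-231, BT-20), each carrying 12 doxycycline-inducible Cas9 sgRNA perturbations (11 knockouts plus non-targeting sgNT), was treated with compounds for 72 h at four 10-fold doses (10 nM-10 uM or 1 nM-1 uM range). Barcodes were amplified and sequenced, and cell number was interpolated from 293T spike-in standard curves. The result is expressed as % of the median of DMSO wells. Two biological replicates.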

[1] = sgRNA knockout: sgATF3, 1000 nM
[2] = sgRNA knockout: sgATF3, 10000 nM
[3] = sgRNA knockout: sgATF4, 1000 nM
[4] = sgRNA knockout: sgATF4, 10000 nM
[5] = sgRNA knockout: sgATF6, 1000 nM
[6] = sgRNA knockout: sgATF6, 10000 nM
[7] = sgRNA knockout: sgATG7, 1000 nM
[8] = sgRNA knockout: sgATG7, 10000 nM
[9] = sgRNA knockout: sgERN1, 1000 nM
[10] = sgRNA knockout: sgERN1, 10000 nM
[11] = sgRNA knockout: sgHSF1, 1000 nM
[12] = sgRNA knockout: sgHSF1, 10000 nM
[13] = sgRNA knockout: sgHSF2, 1000 nM
[14] = sgRNA knockout: sgHSF2, 10000 nM
[15] = sgRNA knockout: sgKEAP1, 100 nM
[16] = sgRNA knockout: sgKEAP1, 1000 nM
[17] = sgRNA knockout: sgKEAP1, 10000 nM
[18] = sgRNA knockout: sgNFE2L2, 10 nM
[19] = sgRNA knockout: sgNFE2L2, 100 nM
[20] = sgRNA knockout: sgNFE2L2, 1000 nM
[21] = sgRNA knockout: sgNFE2L2, 10000 nM
[22] = sgRNA knockout: sgSLC35F2, 10 nM
[23] = sgRNA knockout: sgSLC35F2, 100 nM
[24] = sgRNA knockout: sgSLC35F2, 1000 nM
[25] = sgRNA knockout: sgSLC35F2, 10000 nM
[26] = sgRNA knockout: sgXBP1, 1000 nM
[27] = sgRNA knockout: sgXBP1, 10000 nM

Cc1nc(Nc2ncc(C(=O)Nc3c(C)cccc3Cl)s2)cc(N2CCN(CCO)CC2)n1 [Dasatinib]
relative cell number (sgRNA knockout: sgATF3, 10 nM): 113 ± 3.6 | relative cell number (sgRNA knockout: sgATF3, 100 nM): 112 ± 3.3 | relative cell number [1]: 114 ± 14 | relative cell number [2]: 48.5 ± 6.6 | relative cell number (sgRNA knockout: sgATF4, 10 nM): 107.1 ± 0.31 | relative cell number (sgRNA knockout: sgATF4, 100 nM): 85.5 ± 16 | relative cell number [3]: 89.9 ± 8.7 | relative cell number [4]: 37.5 ± 8.8 | relative cell number (sgRNA knockout: sgATF6, 10 nM): 93.9 ± 18 | relative cell number (sgRNA knockout: sgATF6, 100 nM): 83.4 ± 20 | relative cell number [5]: 90.1 ± 6 | relative cell number [6]: 37.6 ± 5.3 | relative cell number (sgRNA knockout: sgATG7, 10 nM): 102.5 ± 0.12 | relative cell number (sgRNA knockout: sgATG7, 100 nM): 95.3 ± 4.6 | relative cell number [7]: 126.2 ± 0.3 | relative cell number [8]: 39.8 ± 8.6 | relative cell number (sgRNA knockout: sgERN1, 10 nM): 68.9 ± 17 | relative cell number (sgRNA knockout: sgERN1, 100 nM): 96.9 ± 8.7 | relative cell number [9]: 107 ± 3.4 | relative cell number [10]: 52.7 ± 4.3 | relative cell number (sgRNA knockout: sgHSF1, 10 nM): 87.1 ± 21 | relative cell number (sgRNA knockout: sgHSF1, 100 nM): 99.7 ± 9.2 | relative cell number [11]: 93.7 ± 4.5 | relative cell number [12]: 41.4 ± 8.5 | relative cell number (sgRNA knockout: sgHSF2, 10 nM): 90.01 ± 0.59 | relative cell number (sgRNA knockout: sgHSF2, 100 nM): 91.6 ± 1.9 | relative cell number [13]: 92.8 ± 22 | relative cell number [14]: 40.8 ± 4.4 | relative cell number (sgRNA knockout: sgKEAP1, 10 nM): 114 ± 32 | relative cell number [15]: 83.9 ± 1.9 | relative cell number [16]: 100 ± 21 | relative cell number [17]: 43.8 ± 2.9 | relative cell number [18]: 99 ± 2.2 | relative cell number [19]: 88.9 ± 13 | relative cell number [20]: 87.9 ± 6.9 | relative cell number [21]: 48.4 ± 4.7 | relative cell number [22]: 108 ± 16 | relative cell number [23]: 77.8 ± 25 | relative cell number [24]: 91.6 ± 19 | relative cell number [25]: 37.9 ± 6.6 | relative cell number (sgRNA knockout: sgXBP1, 10 nM): 83.1 ± 25 | relative cell number (sgRNA knockout: sgXBP1, 100 nM): 71.8 ± 5.1 | relative cell number [26]: 102 ± 4 | relative cell number [27]: 45.5 ± 4.2

COc1cc2nccc(Oc3ccc(NC(=O)NC4CC4)c(Cl)c3)c2cc1C(N)=O [Lenvatinib]
relative cell number (sgRNA knockout: sgATF3, 10 nM): 113 ± 1.3 | relative cell number (sgRNA knockout: sgATF3, 100 nM): 129 ± 6.4 | relative cell number [1]: 103 ± 5 | relative cell number [2]: 126 ± 17 | relative cell number (sgRNA knockout: sgATF4, 10 nM): 89.7 ± 13 | relative cell number (sgRNA knockout: sgATF4, 100 nM): 94 ± 17 | relative cell number [3]: 90.2 ± 12 | relative cell number [4]: 92.4 ± 19 | relative cell number (sgRNA knockout: sgATF6, 10 nM): 103 ± 3.8 | relative cell number (sgRNA knockout: sgATF6, 100 nM): 97.8 ± 4.5 | relative cell number [5]: 110 ± 13 | relative cell number [6]: 114 ± 12 | relative cell number (sgRNA knockout: sgATG7, 10 nM): 95.2 ± 1.4 | relative cell number (sgRNA knockout: sgATG7, 100 nM): 123 ± 15 | relative cell number [7]: 124 ± 9 | relative cell number [8]: 115 ± 10 | relative cell number (sgRNA knockout: sgERN1, 10 nM): 95.81 ± 0.72 | relative cell number (sgRNA knockout: sgERN1, 100 nM): 104 ± 11 | relative cell number [9]: 100 ± 1.2 | relative cell number [10]: 110 ± 4.6 | relative cell number (sgRNA knockout: sgHSF1, 10 nM): 92.5 ± 18 | relative cell number (sgRNA knockout: sgHSF1, 100 nM): 101 ± 3.8 | relative cell number [11]: 96.9 ± 1 | relative cell number [12]: 103 ± 14 | relative cell number (sgRNA knockout: sgHSF2, 10 nM): 98.7 ± 17 | relative cell number (sgRNA knockout: sgHSF2, 100 nM): 100 ± 2.8 | relative cell number [13]: 108 ± 18 | relative cell number [14]: 105 ± 33 | relative cell number (sgRNA knockout: sgKEAP1, 10 nM): 107 ± 4.3 | relative cell number [15]: 88 ± 1.1 | relative cell number [16]: 97.3 ± 34 | relative cell number [17]: 105 ± 12 | relative cell number [18]: 108 ± 13 | relative cell number [19]: 96.6 ± 22 | relative cell number [20]: 119 ± 9.2 | relative cell number [21]: 101 ± 28 | relative cell number [22]: 97.6 ± 11 | relative cell number [23]: 105 ± 1.6 | relative cell number [24]: 112 ± 1.8 | relative cell number [25]: 113 ± 24 | relative cell number (sgRNA knockout: sgXBP1, 10 nM): 90.3 ± 25 | relative cell number (sgRNA knockout: sgXBP1, 100 nM): 119 ± 32 | relative cell number [26]: 99.5 ± 14 | relative cell number [27]: 89.9 ± 45

CN1CCN(CCOc2cc(OC3CCOCC3)c3c(Nc4c(Cl)ccc5c4OCO5)ncnc3c2)CC1 [Saracatinib]
relative cell number (sgRNA knockout: sgATF3, 10 nM): 91.3 ± 29 | relative cell number (sgRNA knockout: sgATF3, 100 nM): 77.2 ± 18 | relative cell number [1]: 80.1 ± 4.4 | relative cell number [2]: 41.5 ± 4.7 | relative cell number (sgRNA knockout: sgATF4, 10 nM): 84.9 ± 13 | relative cell number (sgRNA knockout: sgATF4, 100 nM): 96.1 ± 15 | relative cell number [3]: 84.5 ± 5.8 | relative cell number [4]: 39.1 ± 2 | relative cell number (sgRNA knockout: sgATF6, 10 nM): 84.8 ± 3.8 | relative cell number (sgRNA knockout: sgATF6, 100 nM): 81.7 ± 9.5 | relative cell number [5]: 86.5 ± 18 | relative cell number [6]: 40.5 ± 2.7 | relative cell number (sgRNA knockout: sgATG7, 10 nM): 88.6 ± 9.7 | relative cell number (sgRNA knockout: sgATG7, 100 nM): 106 ± 5 | relative cell number [7]: 85.8 ± 10 | relative cell number [8]: 41.9 ± 13 | relative cell number (sgRNA knockout: sgERN1, 10 nM): 84.5 ± 33 | relative cell number (sgRNA knockout: sgERN1, 100 nM): 91.5 ± 1.8 | relative cell number [9]: 86.3 ± 3.1 | relative cell number [10]: 52.3 ± 9.7 | relative cell number (sgRNA knockout: sgHSF1, 10 nM): 75.8 ± 42 | relative cell number (sgRNA knockout: sgHSF1, 100 nM): 84.9 ± 12 | relative cell number [11]: 73.8 ± 12 | relative cell number [12]: 30.1 ± 3 | relative cell number (sgRNA knockout: sgHSF2, 10 nM): 83 ± 22 | relative cell number (sgRNA knockout: sgHSF2, 100 nM): 94.4 ± 28 | relative cell number [13]: 77.4 ± 7.4 | relative cell number [14]: 44.3 ± 20 | relative cell number (sgRNA knockout: sgKEAP1, 10 nM): 89.2 ± 6 | relative cell number [15]: 79.3 ± 22 | relative cell number [16]: 96.4 ± 10 | relative cell number [17]: 38.9 ± 7 | relative cell number [18]: 74.2 ± 18 | relative cell number [19]: 103 ± 5.8 | relative cell number [20]: 73.8 ± 5.4 | relative cell number [21]: 46.2 ± 4.9 | relative cell number [22]: 81.8 ± 35 | relative cell number [23]: 76.3 ± 24 | relative cell number [24]: 81.3 ± 5.8 | relative cell number [25]: 40.6 ± 4.2 | relative cell number (sgRNA knockout: sgXBP1, 10 nM): 93.4 ± 34 | relative cell number (sgRNA knockout: sgXBP1, 100 nM): 84.2 ± 8.3 | relative cell number [26]: 79 ± 4.1 | relative cell number [27]: 44.8 ± 8.2
